Assay results: article doi:10.1101/2024.12.19.629515
No constants are given. Whether binding was seen depends on the method and setting. For some of these results: Binding seen in cells or lysates may run through a third protein. Some entries that bind do so weakly or less than the wild type. For some of these results: Where a sequence is shown, tags or fusion partners need not be part of it.

The chains behind the UniProt entries cited, without tags or fusion partners. Where a name states a change or a piece, a line headed by the entry shows the natural chain unless it says otherwise. Residues count along the entry.
UniProt O22476, 24-1196: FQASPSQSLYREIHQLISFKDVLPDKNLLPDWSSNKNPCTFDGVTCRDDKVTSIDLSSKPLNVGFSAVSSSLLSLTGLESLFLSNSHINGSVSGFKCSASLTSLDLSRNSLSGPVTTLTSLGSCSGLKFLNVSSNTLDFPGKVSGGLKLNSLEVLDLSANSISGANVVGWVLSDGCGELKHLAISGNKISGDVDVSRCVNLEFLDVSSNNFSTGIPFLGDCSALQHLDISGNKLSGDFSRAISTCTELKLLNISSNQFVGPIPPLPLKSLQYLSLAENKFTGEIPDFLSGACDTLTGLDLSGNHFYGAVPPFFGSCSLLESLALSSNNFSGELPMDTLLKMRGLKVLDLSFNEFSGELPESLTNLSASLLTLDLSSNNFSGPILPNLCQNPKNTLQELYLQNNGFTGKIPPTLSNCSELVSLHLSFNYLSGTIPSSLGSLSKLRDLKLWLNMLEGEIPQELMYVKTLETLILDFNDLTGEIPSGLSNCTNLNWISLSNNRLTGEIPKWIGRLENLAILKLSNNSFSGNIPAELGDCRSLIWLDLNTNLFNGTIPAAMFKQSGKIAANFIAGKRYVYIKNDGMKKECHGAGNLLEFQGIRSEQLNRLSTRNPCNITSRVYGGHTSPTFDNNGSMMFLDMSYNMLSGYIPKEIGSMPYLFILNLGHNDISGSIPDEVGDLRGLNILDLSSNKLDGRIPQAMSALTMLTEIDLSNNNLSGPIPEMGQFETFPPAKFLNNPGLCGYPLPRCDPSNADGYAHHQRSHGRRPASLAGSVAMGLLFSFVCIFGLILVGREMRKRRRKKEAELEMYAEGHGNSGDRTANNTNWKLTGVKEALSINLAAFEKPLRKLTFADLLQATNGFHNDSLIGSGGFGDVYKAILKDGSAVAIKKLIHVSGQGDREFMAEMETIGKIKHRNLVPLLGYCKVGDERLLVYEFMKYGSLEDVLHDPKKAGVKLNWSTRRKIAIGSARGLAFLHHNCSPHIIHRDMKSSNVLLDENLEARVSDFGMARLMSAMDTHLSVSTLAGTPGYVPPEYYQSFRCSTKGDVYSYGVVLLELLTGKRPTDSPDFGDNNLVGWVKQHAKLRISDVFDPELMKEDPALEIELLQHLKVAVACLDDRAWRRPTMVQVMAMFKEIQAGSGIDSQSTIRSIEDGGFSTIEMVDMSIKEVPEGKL
UniProt O22476, whole entry, looked up, stated change not applied: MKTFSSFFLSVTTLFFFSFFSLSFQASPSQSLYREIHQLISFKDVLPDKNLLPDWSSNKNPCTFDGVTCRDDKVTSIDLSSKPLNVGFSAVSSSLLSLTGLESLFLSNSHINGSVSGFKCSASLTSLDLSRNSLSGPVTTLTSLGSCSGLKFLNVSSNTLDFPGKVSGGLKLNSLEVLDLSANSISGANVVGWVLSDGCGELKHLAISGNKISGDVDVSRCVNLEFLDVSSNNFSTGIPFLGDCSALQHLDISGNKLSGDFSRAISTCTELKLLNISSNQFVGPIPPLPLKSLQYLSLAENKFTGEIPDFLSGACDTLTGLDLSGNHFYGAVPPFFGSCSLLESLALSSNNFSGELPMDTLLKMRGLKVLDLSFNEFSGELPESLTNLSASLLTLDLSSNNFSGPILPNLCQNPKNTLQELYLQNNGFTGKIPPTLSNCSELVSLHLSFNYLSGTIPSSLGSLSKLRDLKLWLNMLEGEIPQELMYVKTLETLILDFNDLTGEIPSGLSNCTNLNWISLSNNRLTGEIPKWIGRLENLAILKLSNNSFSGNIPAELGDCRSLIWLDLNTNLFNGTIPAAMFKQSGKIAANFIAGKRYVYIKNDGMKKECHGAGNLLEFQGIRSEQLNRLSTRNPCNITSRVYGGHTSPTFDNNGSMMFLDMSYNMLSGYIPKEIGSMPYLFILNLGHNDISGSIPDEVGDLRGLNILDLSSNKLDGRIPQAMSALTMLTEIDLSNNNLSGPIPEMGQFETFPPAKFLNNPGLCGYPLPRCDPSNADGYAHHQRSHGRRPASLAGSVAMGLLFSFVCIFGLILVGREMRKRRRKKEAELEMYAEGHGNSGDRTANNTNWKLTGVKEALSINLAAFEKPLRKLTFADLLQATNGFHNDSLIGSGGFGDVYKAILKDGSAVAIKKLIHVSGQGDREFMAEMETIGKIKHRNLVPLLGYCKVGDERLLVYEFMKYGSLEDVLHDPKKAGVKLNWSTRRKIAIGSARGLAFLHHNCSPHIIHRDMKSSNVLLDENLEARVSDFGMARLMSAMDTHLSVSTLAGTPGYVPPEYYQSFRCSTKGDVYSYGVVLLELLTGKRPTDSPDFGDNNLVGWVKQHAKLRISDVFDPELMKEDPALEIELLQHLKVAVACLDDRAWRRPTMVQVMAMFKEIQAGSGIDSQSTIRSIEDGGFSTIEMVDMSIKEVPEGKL
UniProt Q9LN63, whole entry: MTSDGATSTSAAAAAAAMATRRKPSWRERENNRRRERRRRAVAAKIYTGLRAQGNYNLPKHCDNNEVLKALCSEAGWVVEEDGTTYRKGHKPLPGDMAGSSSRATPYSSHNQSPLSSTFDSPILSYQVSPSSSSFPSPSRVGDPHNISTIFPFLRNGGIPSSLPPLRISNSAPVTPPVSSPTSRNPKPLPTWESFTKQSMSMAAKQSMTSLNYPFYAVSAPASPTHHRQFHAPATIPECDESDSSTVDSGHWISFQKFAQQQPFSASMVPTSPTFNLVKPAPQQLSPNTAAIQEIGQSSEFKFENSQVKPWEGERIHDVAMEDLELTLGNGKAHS
UniProt Q96299, whole entry: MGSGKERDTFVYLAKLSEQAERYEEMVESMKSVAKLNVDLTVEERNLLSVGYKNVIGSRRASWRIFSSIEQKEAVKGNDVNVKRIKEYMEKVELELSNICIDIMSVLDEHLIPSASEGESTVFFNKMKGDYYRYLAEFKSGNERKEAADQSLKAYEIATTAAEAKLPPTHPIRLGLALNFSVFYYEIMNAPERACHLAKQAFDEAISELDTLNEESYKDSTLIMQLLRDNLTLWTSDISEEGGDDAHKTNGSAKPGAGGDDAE

Columns and labels:
[1] = target: HA-tagged BRI1 (BRI1-HA) (Arabidopsis thaliana) (UniProt O22476); assay: co-IP
[2] = target: BRI1-mCitrine (BRI1-mCit) (Arabidopsis thaliana) (UniProt O22476); assay: co-IP
[3] = target: BRI1^S858A;T872A-mCitrine (BRI1^S858A;T872A-mCit) (Arabidopsis thaliana) (UniProt O22476); assay: co-IP
[4] = target: BRI1-cYFP (Arabidopsis thaliana) (UniProt O22476); assay: split reporter
[5] = target: T1, BKI1-GFP (Arabidopsis thaliana) (UniProt Q9FMZ0); assay: co-IP
T1 sequence: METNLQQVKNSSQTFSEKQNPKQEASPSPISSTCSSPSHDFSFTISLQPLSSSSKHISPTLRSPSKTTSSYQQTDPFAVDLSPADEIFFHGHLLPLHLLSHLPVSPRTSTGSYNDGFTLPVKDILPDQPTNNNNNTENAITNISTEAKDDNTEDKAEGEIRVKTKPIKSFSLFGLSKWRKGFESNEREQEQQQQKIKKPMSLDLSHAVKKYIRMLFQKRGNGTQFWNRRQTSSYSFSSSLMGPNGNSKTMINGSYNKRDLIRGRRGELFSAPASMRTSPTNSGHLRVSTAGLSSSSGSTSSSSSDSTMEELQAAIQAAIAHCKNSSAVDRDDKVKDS

[6] = target: BES1-S-GFP (Arabidopsis thaliana) (UniProt Q9LN63); assay: co-IP
[7] = target: BRI1-GFP (Arabidopsis thaliana) (UniProt O22476); assay: co-IP
[8] = target: BRI1 in pBT3-STE (split-ubiquitin bait) (Arabidopsis thaliana) (UniProt O22476); assay: two-hybrid
[9] = target: BRI1^S858A;T872A in pBT3-STE (split-ubiquitin bait) (Arabidopsis thaliana) (UniProt O22476); assay: two-hybrid

With “GFP-tagged GRF9 (GRF9-GFP) (from UniProt Q96299 1-263)” the binding [1] was “binds”.

B1: BAK1 (endogenous) (receptor, UniProt Q94F62 26-615)
chain: NAEGDALSALKNSLADPNKVLQSWDATLVTPCTWFHVTCNSDNSVTRVDLGNANLSGQLVMQLGQLPNLQYLELYSNNITGTIPEQLGNLTELVSLDLYLNNLSGPIPSTLGRLKKLRFLRLNNNSLSGEIPRSLTAVLTLQVLDLSNNPLTGDIPVNGSFSLFTPISFANTKLTPLPASPPPPISPTPPSPAGSNRITGAIAGGVAAGAALLFAVPAIALAWWRRKKPQDHFFDVPAEEDPEVHLGQLKRFSLRELQVASDNFSNKNILGRGGFGKVYKGRLADGTLVAVKRLKEERTQGGELQFQTEVEMISMAVHRNLLRLRGFCMTPTERLLVYPYMANGSVASCLRERPESQPPLDWPKRQRIALGSARGLAYLHDHCDPKIIHRDVKAANILLDEEFEAVVGDFGLAKLMDYKDTHVTTAVRGTIGHIAPEYLSTGKSSEKTDVFGYGVMLLELITGQRAFDLARLANDDDVMLLDWVKGLLKEKKLEALVDVDLQGNYKDEEVEQLIQVALLCTQSSPMERPKMSEVVRMLEGDGLAERWEEWQKEEMFRQDFNYPTHHPAVSGWIIGDSTSQIENEYPSGPR
B1 was tested, and the binding [2] was “binds” and the binding [3] was “binds”.

B2: GFP-tagged GRF2 (GRF2-GFP) (protein, UniProt Q01525 1-259)
chain: MASGREEFVYMAKLAEQAERYEEMVEFMEKVSAAVDGDELTVEERNLLSVAYKNVIGARRASWRIISSIEQKEESRGNDDHVTAIREYRSKIETELSGICDGILKLLDSRLIPAAASGDSKVFYLKMKGDYHRYLAEFKTGQERKDAAEHTLAAYKSAQDIANAELAPTHPIRLGLALNFSVFYYEILNSPDRACNLAKQAFDEAIAELDTLGEESYKDSTLIMQLLRDNLTLWTSDMQDDAADEIKEAAAPKPTEEQQ
B2 was tested, and the binding [1] was “binds”.

B3: GFP-tagged GRF3 (GRF3-GFP) (protein, UniProt P42644 1-255)
chain: MSTREENVYMAKLAEQAERYEEMVEFMEKVAKTVDVEELSVEERNLLSVAYKNVIGARRASWRIISSIEQKEESKGNEDHVAIIKDYRGKIESELSKICDGILNVLEAHLIPSASPAESKVFYLKMKGDYHRYLAEFKAGAERKEAAESTLVAYKSASDIATAELAPTHPIRLGLALNFSVFYYEILNSPDRACSLAKQAFDDAIAELDTLGEESYKDSTLIMQLLRDNLTLWTSDMTDEAGDEIKEASKPDGAE
B3 was tested, and the binding [1] was “binds”.

B4: GFP-tagged GRF11 (GRF11-GFP) (protein, UniProt Q9S9Z8 1-252)
chain: MENERAKQVYLAKLNEQAERYDEMVEAMKKVAALDVELTIEERNLLSVGYKNVIGARRASWRILSSIEQKEESKGNEQNAKRIKDYRTKVEEELSKICYDILAVIDKHLVPFATSGESTVFYYKMKGDYFRYLAEFKSGADREEAADLSLKAYEAATSSASTELSTTHPIRLGLALNFSVFYYEILNSPERACHLAKRAFDEAIAELDSLNEDSYKDSTLIMQLLRDNLTLWTSDLEEGGEQSKGHNQQDEN
With B4 the binding [1] was “binds”.

B5: PUB13-HA (enzyme, UniProt Q9SNC6 1-660)
chain: MEEEKASAAQSLIDVVNEIAAISDYRITVKKLCYNLARRLKLLVPMFEEIRESNEPISEDTLKTLMNLKEAMCSAKDYLKFCSQGSKIYLVMEREQVTSKLMEVSVKLEQSLSQIPYEELDISDEVREQVELVLSQFRRAKGRVDVSDDELYEDLQSLCNKSSDVDAYQPVLERVAKKLHLMEIPDLAQESVALHEMVASSGGDVGENIEEMAMVLKMIKDFVQTEDDNGEEQKVGVNSRSNGQTSTAASQKIPVIPDDFRCPISLEMMRDPVIVSSGQTYERTCIEKWIEGGHSTCPKTQQALTSTTLTPNYVLRSLIAQWCEANDIEPPKPPSSLRPRKVSSFSSPAEANKIEDLMWRLAYGNPEDQRSAAGEIRLLAKRNADNRVAIAEAGAIPLLVGLLSTPDSRIQEHSVTALLNLSICENNKGAIVSAGAIPGIVQVLKKGSMEARENAAATLFSLSVIDENKVTIGALGAIPPLVVLLNEGTQRGKKDAATALFNLCIYQGNKGKAIRAGVIPTLTRLLTEPGSGMVDEALAILAILSSHPEGKAIIGSSDAVPSLVEFIRTGSPRNRENAAAVLVHLCSGDPQHLVEAQKLGLMGPLIDLAGNGTDRGKRKAAQLLERISRLAEQQKETAVSQPEEEAEPTHPESTTEAADT
With B5 the binding [2] was “binds” and the binding [3] was “binds”.

B6: GFP-tagged GRF10 (GRF10-GFP) (protein, UniProt P48347 1-254)
chain: MENEREKQVYLAKLSEQTERYDEMVEAMKKVAQLDVELTVEERNLVSVGYKNVIGARRASWRILSSIEQKEESKGNDENVKRLKNYRKRVEDELAKVCNDILSVIDKHLIPSSNAVESTVFFYKMKGDYYRYLAEFSSGAERKEAADQSLEAYKAAVAAAENGLAPTHPVRLGLALNFSVFYYEILNSPESACQLAKQAFDDAIAELDSLNEESYKDSTLIMQLLRDNLTLWTSDLNEEGDERTKGADEPQDEN
In the case of B6, the binding [1] is reported as “binds”.

B7: GFP-tagged GRF5 (GRF5-GFP) (protein, UniProt P42645 1-268)
chain: MSSDSSREENVYLAKLAEQAERYEEMVEFMEKVAKTVETEELTVEERNLLSVAYKNVIGARRASWRIISSIEQKEDSRGNSDHVSIIKDYRGKIETELSKICDGILNLLEAHLIPAASLAESKVFYLKMKGDYHRYLAEFKTGAERKEAAESTLVAYKSAQDIALADLAPTHPIRLGLALNFSVFYYEILNSSDRACSLAKQAFDEAISELDTLGEESYKDSTLIMQLLRDNLTLWTSDLNDEAGDDIKEAPKEVQKVDEQAQPPPSQ
B7 was tested, and the binding [1] was “binds”.

B8: BKI1-nYFP (protein, UniProt Q9FMZ0 1-337)
chain: T1 sequence
For B8, the binding [4] was “binds”.

B9: GFP-tagged GRF6 (GRF6-GFP) (protein, UniProt P48349 1-248)
chain: MAATLGRDQYVYMAKLAEQAERYEEMVQFMEQLVTGATPAEELTVEERNLLSVAYKNVIGSLRAAWRIVSSIEQKEESRKNDEHVSLVKDYRSKVESELSSVCSGILKLLDSHLIPSAGASESKVFYLKMKGDYHRYMAEFKSGDERKTAAEDTMLAYKAAQDIAAADMAPTHPIRLGLALNFSVFYYEILNSSDKACNMAKQAFEEAIAELDTLGEESYKDSTLIMQLLRDNLTLWTSDMQEQMDEA
For B9, the binding [1] was “binds”.

B10: GRF6-3xFlag (protein, UniProt P48349 1-248)
chain: B9 chain
With B10 the binding [5] was “binds”.

B11: GRF6-HA (protein, UniProt P48349 1-248)
chain: B9 chain
For B11, the binding [6] was “binds”, the binding [7] was “binds” and the binding [2] was “binds”.

B12: GRF6 in pPR3-N (split-ubiquitin prey) (protein, UniProt P48349 1-248)
chain: B9 chain
For B12, the binding [8] was “binds” and the binding [9] was “no binding”.

B13: GRF6-nYFP (protein, UniProt P48349 1-248)
chain: B9 chain
B13 was tested, and the binding [4] was “binds weakly”.
